Experimental data reported in article PMC7032568.
Results are given in words; binding and its absence hold for the method and conditions named. Binding seen in cells or lysates may run through a third protein. Some entries that bind do so weakly or less than the wild type. Where a sequence is shown, tags or fusion partners need not be part of it.

The chains behind the UniProt entries cited, without tags or fusion partners.
UniProt P28340: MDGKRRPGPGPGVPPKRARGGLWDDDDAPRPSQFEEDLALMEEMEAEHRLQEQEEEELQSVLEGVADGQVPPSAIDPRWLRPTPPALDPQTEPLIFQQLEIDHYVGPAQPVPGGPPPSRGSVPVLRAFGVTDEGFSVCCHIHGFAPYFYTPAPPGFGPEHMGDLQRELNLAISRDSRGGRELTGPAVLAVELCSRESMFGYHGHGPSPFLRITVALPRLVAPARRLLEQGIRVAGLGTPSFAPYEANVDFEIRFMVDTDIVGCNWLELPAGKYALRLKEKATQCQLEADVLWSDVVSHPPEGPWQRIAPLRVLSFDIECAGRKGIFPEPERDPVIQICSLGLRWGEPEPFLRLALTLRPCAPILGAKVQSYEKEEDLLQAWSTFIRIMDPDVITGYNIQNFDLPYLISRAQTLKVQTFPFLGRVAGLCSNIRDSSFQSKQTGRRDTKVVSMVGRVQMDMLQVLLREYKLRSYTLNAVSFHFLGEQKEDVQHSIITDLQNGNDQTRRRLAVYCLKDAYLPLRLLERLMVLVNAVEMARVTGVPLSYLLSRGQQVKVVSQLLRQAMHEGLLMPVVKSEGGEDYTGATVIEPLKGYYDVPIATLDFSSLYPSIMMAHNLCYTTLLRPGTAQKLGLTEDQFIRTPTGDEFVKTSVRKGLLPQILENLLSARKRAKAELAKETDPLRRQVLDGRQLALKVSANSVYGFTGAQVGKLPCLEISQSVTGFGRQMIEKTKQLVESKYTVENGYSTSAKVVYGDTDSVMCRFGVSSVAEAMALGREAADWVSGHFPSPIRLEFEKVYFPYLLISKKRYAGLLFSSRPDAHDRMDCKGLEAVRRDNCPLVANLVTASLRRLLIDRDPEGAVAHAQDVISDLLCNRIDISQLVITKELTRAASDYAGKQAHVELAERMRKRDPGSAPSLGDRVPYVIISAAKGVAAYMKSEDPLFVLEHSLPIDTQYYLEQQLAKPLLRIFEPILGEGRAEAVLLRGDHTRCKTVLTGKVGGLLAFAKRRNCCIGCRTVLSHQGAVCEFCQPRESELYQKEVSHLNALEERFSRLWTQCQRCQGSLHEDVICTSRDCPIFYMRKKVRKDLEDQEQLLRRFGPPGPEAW

T1: Flag-tagged DDX11 R263Q (WABS variant) (human) (UniProt Q96FC9)
T1 sequence: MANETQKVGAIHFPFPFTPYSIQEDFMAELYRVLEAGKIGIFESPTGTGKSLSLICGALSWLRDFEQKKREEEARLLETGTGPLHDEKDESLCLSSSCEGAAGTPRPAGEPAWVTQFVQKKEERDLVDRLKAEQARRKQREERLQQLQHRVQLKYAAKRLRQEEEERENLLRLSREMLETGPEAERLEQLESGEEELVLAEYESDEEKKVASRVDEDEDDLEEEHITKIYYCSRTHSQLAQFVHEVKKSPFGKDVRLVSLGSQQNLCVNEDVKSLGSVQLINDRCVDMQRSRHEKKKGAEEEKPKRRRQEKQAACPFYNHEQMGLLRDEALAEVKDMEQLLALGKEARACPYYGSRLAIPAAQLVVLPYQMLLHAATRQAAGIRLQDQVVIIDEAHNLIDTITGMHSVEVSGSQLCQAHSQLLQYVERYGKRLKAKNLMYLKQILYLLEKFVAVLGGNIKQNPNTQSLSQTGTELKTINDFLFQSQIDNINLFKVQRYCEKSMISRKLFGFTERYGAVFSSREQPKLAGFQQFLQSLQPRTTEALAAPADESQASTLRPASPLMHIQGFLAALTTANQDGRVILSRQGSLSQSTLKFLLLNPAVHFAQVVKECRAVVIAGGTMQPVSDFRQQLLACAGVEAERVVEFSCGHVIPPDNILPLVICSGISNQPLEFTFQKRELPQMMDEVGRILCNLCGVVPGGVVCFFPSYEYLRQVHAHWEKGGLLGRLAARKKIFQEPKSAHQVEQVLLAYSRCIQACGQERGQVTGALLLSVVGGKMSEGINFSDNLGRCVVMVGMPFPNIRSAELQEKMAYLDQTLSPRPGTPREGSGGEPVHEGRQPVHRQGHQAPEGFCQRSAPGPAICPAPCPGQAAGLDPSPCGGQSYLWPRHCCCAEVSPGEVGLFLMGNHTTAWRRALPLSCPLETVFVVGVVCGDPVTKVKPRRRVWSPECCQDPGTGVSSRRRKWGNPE

B1: myc-tagged WDHD1 (protein, UniProt O75717 1-1129)
chain: MPATRKPMRYGHTEGHTEVCFDDSGSFIVTCGSDGDVRIWEDLDDDDPKFINVGEKAYSCALKSGKLVTAVSNNTIQVHTFPEGVPDGILTRFTTNANHVVFNGDGTKIAAGSSDFLVKIVDVMDSSQQKTFRGHDAPVLSLSFDPKDIFLASASCDGSVRVWQISDQTCAISWPLLQKCNDVINAKSICRLAWQPKSGKLLAIPVEKSVKLYRRESWSHQFDLSDNFISQTLNIVTWSPCGQYLAAGSINGLIIVWNVETKDCMERVKHEKGYAICGLAWHPTCGRISYTDAEGNLGLLENVCDPSGKTSSSKVSSRVEKDYNDLFDGDDMSNAGDFLNDNAVEIPSFSKGIINDDEDDEDLMMASGRPRQRSHILEDDENSVDISMLKTGSSLLKEEEEDGQEGSIHNLPLVTSQRPFYDGPMPTPRQKPFQSGSTPLHLTHRFMVWNSIGIIRCYNDEQDNAIDVEFHDTSIHHATHLSNTLNYTIADLSHEAILLACESTDELASKLHCLHFSSWDSSKEWIIDLPQNEDIEAICLGQGWAAAATSALLLRLFTIGGVQKEVFSLAGPVVSMAGHGEQLFIVYHRGTGFDGDQCLGVQLLELGKKKKQILHGDPLPLTRKSYLAWIGFSAEGTPCYVDSEGIVRMLNRGLGNTWTPICNTREHCKGKSDHYWVVGIHENPQQLRCIPCKGSRFPPTLPRPAVAILSFKLPYCQIATEKGQMEEQFWRSVIFHNHLDYLAKNGYEYEESTKNQATKEQQELLMKMLALSCKLEREFRCVELADLMTQNAVNLAIKYASRSRKLILAQKLSELAVEKAAELTATQVEEEEEEEDFRKKLNAGYSNTATEWSQPRFRNQVEEDAEDSGEADDEEKPEIHKPGQNSFSKSTNSSDVSAKSGAVTFSSQGRVNPFKVSASSKEPAMSMNSARSTNILDNMGKSSKKSTALSRTTNNEKSPIIKPLIPKPKPKQASAASYFQKRNSQTNKTEEVKEENLKNVLSETPAICPPQNTENQRPKTGFQMWLEENRSNILSDNPDFSDEADIIKEGMIRFRVLSTEERKVWANKAKGETASEGTEAKKRKRVVDESDETENQEEKAKENLNLSKKQKPLDFSTNQKLSAFAFKQE

Target: T1, Flag-tagged DDX11 R263Q (WABS variant) (human)
Experiment: co-IP; Flag-tagged protein captured overnight on ANTI-FLAG M2 Affinity beads from 293T whole cell lysates (150 mM NaCl, 0.1% NP-40, treated with benzonase); beads washed three times with lysis buffer; Western blot

Molecule | binding
untagged POLD1 (from UniProt P28340 1-1107) | binds
B1 | binds
